Reference: article PMC2806952
Results are given in words; binding and its absence hold for the method and conditions named.

Protein sequences, listed by entry. Tags and fused reporters are not part of them. Residues count along the entry.
fH10–15 (complement factor H CCP modules 10–15, residues 568–927) (P08603, residues 568-927): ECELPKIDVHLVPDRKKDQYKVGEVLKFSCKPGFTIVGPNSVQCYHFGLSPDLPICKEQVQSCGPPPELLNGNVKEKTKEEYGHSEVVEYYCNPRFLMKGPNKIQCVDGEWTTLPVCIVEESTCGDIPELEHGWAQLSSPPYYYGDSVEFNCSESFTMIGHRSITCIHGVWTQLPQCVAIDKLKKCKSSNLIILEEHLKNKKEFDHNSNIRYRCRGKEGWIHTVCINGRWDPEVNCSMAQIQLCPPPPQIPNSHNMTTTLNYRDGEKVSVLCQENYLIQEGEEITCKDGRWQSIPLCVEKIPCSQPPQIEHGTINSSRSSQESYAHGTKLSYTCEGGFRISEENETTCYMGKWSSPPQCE
fH11–14 (complement factor H CCP modules 11–14, residues 629–865) (P08603, residues 629-865): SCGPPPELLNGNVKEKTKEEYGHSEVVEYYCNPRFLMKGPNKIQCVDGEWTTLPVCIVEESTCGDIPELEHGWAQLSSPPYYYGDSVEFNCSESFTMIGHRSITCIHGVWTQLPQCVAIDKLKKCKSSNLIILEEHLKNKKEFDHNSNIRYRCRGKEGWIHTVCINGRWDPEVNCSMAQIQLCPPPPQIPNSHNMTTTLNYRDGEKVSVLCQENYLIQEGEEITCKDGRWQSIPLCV

Columns and labels:
[1] = biological target: fH11–14 (complement factor H CCP modules 11–14, residues 629–865) (human) (UniProt P08603); assay: AUC; sedimentation velocity, 45,000 rpm, protein 0.2–0.4 mg/ml in PBS (pH 7.5), 293 K; c(s) analysis with SEDFIT; both purified
[2] = biological target: fH11–14 (complement factor H CCP modules 11–14, residues 629–865) (human) (UniProt P08603); assay: SAXS; 10 °C, 50 mM potassium phosphate pH 7.4; 0.7, 1.8 and 3.5 mg/ml (fH12–13), 0.7 and 1.6 mg/ml (fH11–14), 2.4, 5.1 and 10.5 mg/ml (fH10–15); molecular mass from forward scattering and hydrated particle volume; both purified
[3] = biological target: fH10–15 (complement factor H CCP modules 10–15, residues 568–927) (human) (UniProt P08603); assay: AUC; sedimentation velocity, 45,000 rpm, protein 0.2–0.4 mg/ml in PBS (pH 7.5), 293 K; c(s) analysis with SEDFIT; both purified
[4] = biological target: fH10–15 (complement factor H CCP modules 10–15, residues 568–927) (human) (UniProt P08603); assay: SAXS; 10 °C, 50 mM potassium phosphate pH 7.4; 0.7, 1.8 and 3.5 mg/ml (fH12–13), 0.7 and 1.6 mg/ml (fH11–14), 2.4, 5.1 and 10.5 mg/ml (fH10–15); molecular mass from forward scattering and hydrated particle volume; both purified

| binding [1] | binding [3] | Substance | binding [2] | binding [4] |
| --- | --- | --- | --- | --- |
| no binding (tested: 0.2–0.4 mg ml^(− 1)) |  | fH11–14 (complement factor H CCP modules 11–14, residues 629–865) (from UniProt P08603 629-865) (domain or fragment) | no binding (tested: 0.7 and 1.6 mg ml^(− 1)) |  |
|  | no binding (tested: 0.2–0.4 mg ml^(− 1)) | fH10–15 (complement factor H CCP modules 10–15, residues 568–927) (from UniProt P08603 568-927) (domain or fragment) |  | no binding (tested: 2.4, 5.1, and 10.5 mg ml^(− 1)) |
